This is one part of the list. Single values are uncertain here, since repeats match poorly.
Target: HuR (ELAVL1) - TNFalpha ARE RNA complex (UniProt Q15717)
Experiment: AlphaScreen HuR-RNA complex signal Z-score relative to positive controls (secondary screen) (Z-score (SD units of positive control)); higher = more complex signal
Conditions: screen stage: secondary re-screen

Amino acid sequences for entries named in this document (tags omitted).
UniProt Q15717, whole entry: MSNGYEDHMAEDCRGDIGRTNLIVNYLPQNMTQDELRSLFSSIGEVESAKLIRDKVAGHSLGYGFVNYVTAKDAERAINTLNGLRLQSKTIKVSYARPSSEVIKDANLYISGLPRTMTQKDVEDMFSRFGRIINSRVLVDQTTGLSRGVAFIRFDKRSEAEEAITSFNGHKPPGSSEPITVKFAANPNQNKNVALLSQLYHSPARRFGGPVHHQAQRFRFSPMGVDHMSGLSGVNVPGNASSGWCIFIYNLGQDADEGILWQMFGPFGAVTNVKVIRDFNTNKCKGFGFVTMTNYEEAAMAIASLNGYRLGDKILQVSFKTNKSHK

Row | SMILES | AlphaScreen HuR-RNA complex signal Z-score
1 | C=C[C@H]1CN2CC[C@H]1C[C@H]2[C@H](O)c1ccnc2ccc(OC)cc12 | 1.57
2 | CC(=O)[C@H]1CC[C@H]2[C@@H]3CCC4=CC(=O)CC[C@]4(C)[C@H]3CC[C@]12C | 0.806
3 | CCN(Cc1ccncc1)C(=O)C(CO)c1ccccc1 (configuration not stated) | 1.74
4 | OCc1ccccc1O | 1.49
5 | CN(C)c1ccc(C(=C2C=CC(=[N+](C)C)C=C2)c2ccc(N(C)C)cc2)cc1 | -0.499
6 | CCN(CC)CCCC(C)Nc1c2ccc(Cl)cc2nc2ccc(OC)cc12 (configuration not stated) | 1.87
7 | CCC(C)(C)C(=O)O[C@H]1C[C@@H](C)C=C2C=C[C@H](C)[C@H](CC[C@@H]3C[C@@H](O)CC(=O)O3)[C@H]21 | 1.54
8 | Nc1ccn([C@@H]2O[C@H](CO)[C@@H](O)[C@@H]2O)c(=O)n1 | 0.208
9 | CC(=O)OCC(CCn1cnc2cnc(N)nc21)COC(C)=O | 2.21
10 | CCc1ccc(CCOc2ccc(CC3SC(=O)NC3=O)cc2)nc1 (configuration not stated) | 1.54
11 | N[C@@H](CSCSC[C@H](N)C(=O)O)C(=O)O | 0.337
12 | O=C1C(O)=C([C@H]2CC[C@H](c3ccc(Cl)cc3)CC2)C(=O)c2ccccc21 | 2.02
13 | O=C1[C@H](CC[C@H](O)c2ccc(F)cc2)[C@@H](c2ccc(O)cc2)N1c1ccc(F)cc1 | 2.04
14 | Cc1noc(NS(=O)(=O)c2ccc(N)cc2)c1C | 2.27
15 | CC1(C)OC(=O)NC1=O | 0.883
16 | CCOc1ccc2ccccc2c1C(=O)N[C@@H]1C(=O)N2[C@@H]1SC(C)(C)[C@@H]2C(=O)O | 1.61
17 | Oc1c(I)cc(Cl)c2cccnc12 | 0.803
18 | CN(C(=O)C(Cl)Cl)c1ccc(OC(=O)c2ccco2)cc1 | -2.15
19 | CN1CCN(CCCN2c3ccccc3Sc3ccc(C(F)(F)F)cc32)CC1 | 2.57

Structural class: the entries above containing sulfur (five)
Row | SMILES | AlphaScreen HuR-RNA complex signal Z-score
10 | CCc1ccc(CCOc2ccc(CC3SC(=O)NC3=O)cc2)nc1 (configuration not stated) | 1.54
11 | N[C@@H](CSCSC[C@H](N)C(=O)O)C(=O)O | 0.337
14 | Cc1noc(NS(=O)(=O)c2ccc(N)cc2)c1C | 2.27
16 | CCOc1ccc2ccccc2c1C(=O)N[C@@H]1C(=O)N2[C@@H]1SC(C)(C)[C@@H]2C(=O)O | 1.61
19 | CN1CCN(CCCN2c3ccccc3Sc3ccc(C(F)(F)F)cc32)CC1 | 2.57

The list continues.

Row | SMILES | AlphaScreen HuR-RNA complex signal Z-score
20 | Clc1ccccc1C(c1ccccc1)(c1ccccc1)n1ccnc1 | 0.655
21 | CC(=O)O[C@H]1C[C@@H](OC(C)=O)C(C)(C)C2CC(=O)[C@]3(C)C(CC[C@@]4(C)[C@H](c5ccoc5)OC(=O)[C@H]5O[C@]543)[C@]21C (some centres not stated) | 0.662
22 | CCN(CC)CCCC(C)Nc1ccnc2cc(Cl)ccc12 (configuration not stated) | 0.731
23 | O=C(c1ccc(OCCN2CCCCC2)cc1)c1c(-c2ccc(O)cc2)sc2cc(O)ccc12 | -2.14
24 | CC(C)NCC(O)c1ccc(O)c(O)c1 (configuration not stated) | 0.824
25 | CC(=O)N[C@H]1[C@H]([C@H](O)[C@H](O)CO)OC(O)(C(=O)O)C[C@@H]1O (mixture of isomers) | 1.08
26 | Cc1cc(C)cc(OCC2CNC(=O)O2)c1 (configuration not stated) | 1.6
27 | O=C(O)CCC(=O)OC[C@@H](NC(=O)C(Cl)Cl)[C@H](O)c1ccc([N+](=O)[O-])cc1 | 0.978
28 | CCN(CC)C(=O)N1CCN(C)CC1 | 1.01
29 | Cc1onc(-c2ccccc2Cl)c1C(=O)N[C@@H]1C(=O)N2[C@@H]1SC(C)(C)[C@@H]2C(=O)O | 0.906
30 | CC(=O)c1ccc(S(=O)(=O)NC(=O)NC2CCCCC2)cc1 | 0.781
31 | CCCCCCCCCCCCCCCC(=O)OC[C@@H](NC(=O)C(Cl)Cl)[C@H](O)c1ccc([N+](=O)[O-])cc1 | 0.27
32 | CC=CC(=O)N(CC)c1ccccc1C | 1.64
33 | NS(=O)(=O)c1cc(C(=O)O)c(NCc2ccco2)cc1Cl | 1.17
34 | O=C(O)CN(CCN(CC(=O)O)CC(=O)O)CC(=O)O.[Na+].[Na+].[Na+] | 0.596
35 | O=C(O)c1cc(=O)c2c(OCC(O)COc3cccc4oc(C(=O)O)cc(=O)c34)cccc2o1 | 1
36 | COC(=O)[C@H]1[C@H]2C[C@@H]3c4[nH]c5cc(OC)ccc5c4CCN3C[C@H]2C[C@@H](OC(=O)c2cc(OC)c(OC)c(OC)c2)[C@@H]1OC | 2.13
37 | Cc1onc(-c2c(Cl)cccc2Cl)c1C(=O)N[C@@H]1C(=O)N2[C@@H]1SC(C)(C)[C@@H]2C(=O)O | 0.871

Source: the supplement of paper PMC3741180, “A Novel High Throughput Biochemical Assay to Evaluate the HuR Protein-RNA Complex Formation” (PLoS ONE, 2013)
